## Assay results

From PubChem BioAssay record AID504749 (NCATS, 2011).

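Malaria parasite (P. falciparum) lines kept in red blood cells; parasite DNA is measured by SYBR Green fluorescence after lysis, 72 h after compound addition. Each compound was titrated across a series from about 0.000037 to 29 µM. The number is the fitted AC50, the concentration giving a half-maximal change in signal; a lower value means higher potency, whether the curve shows a decrease or an increase. Calls follow the curve class and fit quality: every row here is inconclusive, covering signal-raising curves and weak, poorly fitted, partial or highest-dose-only inhibition curves.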

Values are in µM. Every entry below has the call inconclusive. These entries are mostly ones the record files as inconclusive; other results of the assay are not listed here. A potency from a partial, single-point or poor curve is only a rough figure.

compound | setting | potency (µM) | curve
CC(C)(C)c1ccc(C(=O)CCCN2CCC(OC(c3ccccc3)c3ccccc3)CC2)cc1 | TAB113 | 11.22 | inhibitor, single point
CC(C)(C)c1ccc(C(=O)CCCN2CCC(OC(c3ccccc3)c3ccccc3)CC2)cc1 | CP194 | 12 | inhibitor, partial curve
CC(C)(C)c1ccc(C(=O)CCCN2CCC(OC(c3ccccc3)c3ccccc3)CC2)cc1 | DIV14 | 16.94 | inhibitor, single point
CC(C)(C)c1ccc(C(=O)CCCN2CCC(OC(c3ccccc3)c3ccccc3)CC2)cc1 | CP265 | 17.78 | inhibitor, single point
CC(C)(C)c1ccc(C(=O)CCCN2CCC(OC(c3ccccc3)c3ccccc3)CC2)cc1 | DIV17 | 16.94 | inhibitor, single point
CC(C)(C)c1ccc(C(=O)CCCN2CCC(OC(c3ccccc3)c3ccccc3)CC2)cc1 | HB3 | 10 | inhibitor, single point
CC(C)(C)c1ccc(C(=O)CCCN2CCC(OC(c3ccccc3)c3ccccc3)CC2)cc1 | CP201 | 13.46 | inhibitor, partial curve
CC(C)(C)c1ccc(C(=O)CCCN2CCC(OC(c3ccccc3)c3ccccc3)CC2)cc1 | CP291 | 6.746 | inhibitor, partial curve
CC(C)(C)c1ccc(C(=O)CCCN2CCC(OC(c3ccccc3)c3ccccc3)CC2)cc1 | C2A | 11.22 | inhibitor, single point
CC(C)(C)c1ccc(C(=O)CCCN2CCC(OC(c3ccccc3)c3ccccc3)CC2)cc1 | CP250 | 10 | inhibitor, single point
CC(C)(C)c1ccc(C(=O)CCCN2CCC(OC(c3ccccc3)c3ccccc3)CC2)cc1 | CP203 | 6.012 | inhibitor, partial curve
CC(C)(C)c1ccc(C(=O)CCCN2CCC(OC(c3ccccc3)c3ccccc3)CC2)cc1 | DIV30 | 7.569 | inhibitor, partial curve
CC(C)(C)c1ccc(C(=O)CCCN2CCC(OC(c3ccccc3)c3ccccc3)CC2)cc1 | CP266 | 0.0005 | inhibitor
CC(C)(C)c1ccc(C(=O)CCCN2CCC(OC(c3ccccc3)c3ccccc3)CC2)cc1 | FAB9 | 14.13 | inhibitor, single point
CC(C)(C)c1ccc(C(=O)CCCN2CCC(OC(c3ccccc3)c3ccccc3)CC2)cc1 | DFO2036 | 11.22 | inhibitor, single point
CC(C)(C)c1ccc(C(=O)CCCN2CCC(OC(c3ccccc3)c3ccccc3)CC2)cc1 | CP262 | 19.01 | inhibitor, single point
CC(C)(C)c1ccc(C(=O)CCCN2CCC(OC(c3ccccc3)c3ccccc3)CC2)cc1 | CP192 | 10.69 | inhibitor, single point
CC(C)(C)c1ccc(C(=O)CCCN2CCC(OC(c3ccccc3)c3ccccc3)CC2)cc1 | P93_24 | 5.623 | inhibitor, partial curve
CC(C)(C)c1ccc(C(=O)CCCN2CCC(OC(c3ccccc3)c3ccccc3)CC2)cc1 | TAB109 | 11.22 | inhibitor, single point
CC(C)(C)c1ccc(C(=O)CCCN2CCC(OC(c3ccccc3)c3ccccc3)CC2)cc1 | CP247 | 17.78 | inhibitor, single point
C=C1c2cccc(O)c2C(O)=C2C(=O)[C@@]3(O)C(O)=C(C(N)=O)C(=O)[C@@H](N(C)C)[C@@H]3[C@@H](O)[C@H]12 | ICS | 3.162 | inhibitor, partial curve
C=C1c2cccc(O)c2C(O)=C2C(=O)[C@@]3(O)C(O)=C(C(N)=O)C(=O)[C@@H](N(C)C)[C@@H]3[C@@H](O)[C@H]12 | CP286 | 3.981 | inhibitor, single point
C=C1c2cccc(O)c2C(O)=C2C(=O)[C@@]3(O)C(O)=C(C(N)=O)C(=O)[C@@H](N(C)C)[C@@H]3[C@@H](O)[C@H]12 | TAB165 | 3.162 | inhibitor, partial curve

2 of the entries, repeated:

C=C1c2cccc(O)c2C(O)=C2C(=O)[C@@]3(O)C(O)=C(C(N)=O)C(=O)[C@@H](N(C)C)[C@@H]3[C@@H](O)[C@H]12 [CP286] read potency 3.981 µM (inhibitor, single point).
C=C1c2cccc(O)c2C(O)=C2C(=O)[C@@]3(O)C(O)=C(C(N)=O)C(=O)[C@@H](N(C)C)[C@@H]3[C@@H](O)[C@H]12 [ICS] read potency 3.162 µM (inhibitor, partial curve).